# Assay results taken from the supplement of paper PMC10849652.
# The chains behind the UniProt entries cited, without tags or fusion partners. Where a name states a change or a piece, a line headed by the entry shows the natural chain unless it says otherwise.
# UniProt Q86X83, whole entry, looked up: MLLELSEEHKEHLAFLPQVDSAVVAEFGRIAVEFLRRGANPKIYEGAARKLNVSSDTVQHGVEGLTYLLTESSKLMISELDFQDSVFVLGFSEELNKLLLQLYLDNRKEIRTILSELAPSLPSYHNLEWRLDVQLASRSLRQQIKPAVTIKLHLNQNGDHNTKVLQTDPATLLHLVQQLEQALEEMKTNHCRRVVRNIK
# UniProt O75976: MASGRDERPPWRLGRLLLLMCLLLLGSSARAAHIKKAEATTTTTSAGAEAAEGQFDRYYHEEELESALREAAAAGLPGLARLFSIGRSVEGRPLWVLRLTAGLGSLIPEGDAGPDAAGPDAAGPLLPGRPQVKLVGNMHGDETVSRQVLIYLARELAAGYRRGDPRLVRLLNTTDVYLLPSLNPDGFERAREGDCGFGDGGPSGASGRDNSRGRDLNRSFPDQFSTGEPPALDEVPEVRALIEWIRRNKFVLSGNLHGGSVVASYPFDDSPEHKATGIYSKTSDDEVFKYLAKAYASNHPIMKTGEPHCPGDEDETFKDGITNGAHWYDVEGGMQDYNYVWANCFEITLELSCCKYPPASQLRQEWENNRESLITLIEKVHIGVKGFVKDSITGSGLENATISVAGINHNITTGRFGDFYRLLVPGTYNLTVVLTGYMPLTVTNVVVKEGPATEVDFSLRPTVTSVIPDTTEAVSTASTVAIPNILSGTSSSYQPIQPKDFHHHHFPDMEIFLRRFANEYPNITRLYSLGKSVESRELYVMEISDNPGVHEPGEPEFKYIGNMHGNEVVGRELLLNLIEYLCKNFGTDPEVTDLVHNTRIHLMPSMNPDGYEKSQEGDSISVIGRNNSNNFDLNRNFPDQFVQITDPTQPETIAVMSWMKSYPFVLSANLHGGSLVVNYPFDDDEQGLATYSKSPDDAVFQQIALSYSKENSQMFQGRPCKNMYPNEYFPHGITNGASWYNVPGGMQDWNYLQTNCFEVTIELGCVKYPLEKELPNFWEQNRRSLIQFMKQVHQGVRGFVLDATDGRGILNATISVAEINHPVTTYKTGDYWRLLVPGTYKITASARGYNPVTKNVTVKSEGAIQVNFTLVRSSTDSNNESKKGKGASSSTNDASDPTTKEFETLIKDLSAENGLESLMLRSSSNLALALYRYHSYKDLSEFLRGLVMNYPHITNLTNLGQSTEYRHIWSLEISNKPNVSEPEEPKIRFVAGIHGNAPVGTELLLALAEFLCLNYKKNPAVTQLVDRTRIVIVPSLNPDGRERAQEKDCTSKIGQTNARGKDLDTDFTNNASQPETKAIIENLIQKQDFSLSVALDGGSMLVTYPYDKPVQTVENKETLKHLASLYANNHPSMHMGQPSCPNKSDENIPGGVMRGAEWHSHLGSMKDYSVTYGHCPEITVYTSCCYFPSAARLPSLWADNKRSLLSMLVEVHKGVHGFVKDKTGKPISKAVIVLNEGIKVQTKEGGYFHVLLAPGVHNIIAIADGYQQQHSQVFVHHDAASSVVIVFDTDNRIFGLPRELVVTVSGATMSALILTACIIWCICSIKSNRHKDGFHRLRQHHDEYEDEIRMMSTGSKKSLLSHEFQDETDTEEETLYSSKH
# UniProt O75575: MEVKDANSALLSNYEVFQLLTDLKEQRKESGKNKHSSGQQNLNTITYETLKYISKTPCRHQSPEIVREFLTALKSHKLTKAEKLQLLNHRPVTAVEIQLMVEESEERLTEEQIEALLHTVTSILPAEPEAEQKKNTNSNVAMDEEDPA
# UniProt P20674, whole entry, looked up: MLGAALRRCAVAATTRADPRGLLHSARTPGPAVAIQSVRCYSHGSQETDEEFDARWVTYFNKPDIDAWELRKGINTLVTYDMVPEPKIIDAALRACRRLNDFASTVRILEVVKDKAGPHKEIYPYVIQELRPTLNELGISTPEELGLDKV
# UniProt P10606, whole entry, looked up: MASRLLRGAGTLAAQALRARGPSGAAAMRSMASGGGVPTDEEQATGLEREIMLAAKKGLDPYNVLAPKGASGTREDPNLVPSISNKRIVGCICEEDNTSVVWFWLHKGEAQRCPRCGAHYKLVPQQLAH
# UniProt P67870, whole entry, looked up: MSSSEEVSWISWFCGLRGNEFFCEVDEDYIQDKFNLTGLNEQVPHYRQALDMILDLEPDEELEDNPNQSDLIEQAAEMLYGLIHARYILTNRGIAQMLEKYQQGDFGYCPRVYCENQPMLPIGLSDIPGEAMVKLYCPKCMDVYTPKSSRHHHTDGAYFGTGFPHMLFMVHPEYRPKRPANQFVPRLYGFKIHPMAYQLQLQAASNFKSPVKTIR
# UniProt P23786: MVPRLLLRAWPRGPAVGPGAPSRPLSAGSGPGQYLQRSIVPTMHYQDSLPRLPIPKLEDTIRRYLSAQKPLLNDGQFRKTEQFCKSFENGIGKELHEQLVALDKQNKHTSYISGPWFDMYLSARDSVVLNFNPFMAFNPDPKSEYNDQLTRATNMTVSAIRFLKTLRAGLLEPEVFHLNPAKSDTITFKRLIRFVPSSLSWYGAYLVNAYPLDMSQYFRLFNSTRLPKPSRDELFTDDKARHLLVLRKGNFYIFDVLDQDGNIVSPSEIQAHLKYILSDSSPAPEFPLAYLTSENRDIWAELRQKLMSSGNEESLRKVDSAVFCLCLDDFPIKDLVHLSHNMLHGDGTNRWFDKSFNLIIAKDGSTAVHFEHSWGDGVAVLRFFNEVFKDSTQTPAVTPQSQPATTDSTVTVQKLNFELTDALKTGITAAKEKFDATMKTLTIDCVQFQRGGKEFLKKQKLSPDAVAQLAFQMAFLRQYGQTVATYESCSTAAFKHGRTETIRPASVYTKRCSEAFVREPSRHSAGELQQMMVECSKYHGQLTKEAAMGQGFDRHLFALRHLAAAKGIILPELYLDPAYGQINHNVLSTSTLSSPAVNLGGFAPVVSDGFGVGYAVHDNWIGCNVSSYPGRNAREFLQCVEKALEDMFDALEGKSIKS
# UniProt P68400, whole entry, looked up: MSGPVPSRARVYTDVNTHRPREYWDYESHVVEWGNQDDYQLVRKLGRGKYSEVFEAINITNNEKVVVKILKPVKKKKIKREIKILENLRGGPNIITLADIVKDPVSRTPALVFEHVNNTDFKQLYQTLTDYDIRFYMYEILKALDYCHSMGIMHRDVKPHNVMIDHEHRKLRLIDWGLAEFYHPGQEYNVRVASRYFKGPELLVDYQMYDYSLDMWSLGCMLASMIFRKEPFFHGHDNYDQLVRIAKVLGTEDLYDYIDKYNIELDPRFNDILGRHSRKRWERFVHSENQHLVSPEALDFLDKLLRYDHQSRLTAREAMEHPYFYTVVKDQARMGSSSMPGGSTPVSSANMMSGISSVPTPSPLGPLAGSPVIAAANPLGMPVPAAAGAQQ
# UniProt P46108: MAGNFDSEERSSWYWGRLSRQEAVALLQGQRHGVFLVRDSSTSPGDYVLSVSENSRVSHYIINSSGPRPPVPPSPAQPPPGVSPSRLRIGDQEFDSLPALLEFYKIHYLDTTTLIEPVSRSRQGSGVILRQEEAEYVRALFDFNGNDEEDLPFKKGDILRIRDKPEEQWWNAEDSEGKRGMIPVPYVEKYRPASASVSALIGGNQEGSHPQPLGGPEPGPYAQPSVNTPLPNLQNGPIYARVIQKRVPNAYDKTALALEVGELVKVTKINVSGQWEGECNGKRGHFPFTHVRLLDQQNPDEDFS
# UniProt O75208: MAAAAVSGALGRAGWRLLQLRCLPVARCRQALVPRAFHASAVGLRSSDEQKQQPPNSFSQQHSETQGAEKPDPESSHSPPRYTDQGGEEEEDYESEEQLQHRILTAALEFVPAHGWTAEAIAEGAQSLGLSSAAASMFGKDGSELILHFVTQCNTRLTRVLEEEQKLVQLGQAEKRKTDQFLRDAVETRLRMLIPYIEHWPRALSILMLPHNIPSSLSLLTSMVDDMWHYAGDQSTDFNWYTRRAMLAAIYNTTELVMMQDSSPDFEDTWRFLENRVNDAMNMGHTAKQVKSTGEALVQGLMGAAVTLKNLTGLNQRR
# UniProt Q5RI15: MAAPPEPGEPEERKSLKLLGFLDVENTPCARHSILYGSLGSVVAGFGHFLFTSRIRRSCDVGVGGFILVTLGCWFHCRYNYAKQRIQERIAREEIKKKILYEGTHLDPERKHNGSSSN
# UniProt Q92828: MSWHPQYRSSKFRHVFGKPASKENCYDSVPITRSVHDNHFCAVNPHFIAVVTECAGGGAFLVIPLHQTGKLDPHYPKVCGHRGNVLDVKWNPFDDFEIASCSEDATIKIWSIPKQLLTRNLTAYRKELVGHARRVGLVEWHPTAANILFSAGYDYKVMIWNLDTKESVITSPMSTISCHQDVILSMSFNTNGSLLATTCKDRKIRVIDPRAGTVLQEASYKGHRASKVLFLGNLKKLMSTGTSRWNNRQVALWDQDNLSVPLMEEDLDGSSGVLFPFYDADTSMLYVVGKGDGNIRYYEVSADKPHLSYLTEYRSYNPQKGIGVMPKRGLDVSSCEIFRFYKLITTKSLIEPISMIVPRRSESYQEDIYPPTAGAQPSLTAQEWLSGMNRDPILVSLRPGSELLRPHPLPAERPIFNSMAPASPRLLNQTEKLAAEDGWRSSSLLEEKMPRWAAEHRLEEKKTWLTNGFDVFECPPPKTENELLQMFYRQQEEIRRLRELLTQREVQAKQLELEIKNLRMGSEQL
# UniProt Q9H0A8, whole entry, looked up: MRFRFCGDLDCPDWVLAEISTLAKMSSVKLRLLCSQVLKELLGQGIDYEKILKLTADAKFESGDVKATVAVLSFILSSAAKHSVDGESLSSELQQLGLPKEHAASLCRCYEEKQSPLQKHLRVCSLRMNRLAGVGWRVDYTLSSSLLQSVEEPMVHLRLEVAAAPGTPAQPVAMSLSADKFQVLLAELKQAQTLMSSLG
# UniProt Q7Z4G1, whole entry, looked up: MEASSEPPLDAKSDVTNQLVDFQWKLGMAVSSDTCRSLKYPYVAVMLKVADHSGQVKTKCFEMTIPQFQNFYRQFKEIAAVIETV
# UniProt P41240: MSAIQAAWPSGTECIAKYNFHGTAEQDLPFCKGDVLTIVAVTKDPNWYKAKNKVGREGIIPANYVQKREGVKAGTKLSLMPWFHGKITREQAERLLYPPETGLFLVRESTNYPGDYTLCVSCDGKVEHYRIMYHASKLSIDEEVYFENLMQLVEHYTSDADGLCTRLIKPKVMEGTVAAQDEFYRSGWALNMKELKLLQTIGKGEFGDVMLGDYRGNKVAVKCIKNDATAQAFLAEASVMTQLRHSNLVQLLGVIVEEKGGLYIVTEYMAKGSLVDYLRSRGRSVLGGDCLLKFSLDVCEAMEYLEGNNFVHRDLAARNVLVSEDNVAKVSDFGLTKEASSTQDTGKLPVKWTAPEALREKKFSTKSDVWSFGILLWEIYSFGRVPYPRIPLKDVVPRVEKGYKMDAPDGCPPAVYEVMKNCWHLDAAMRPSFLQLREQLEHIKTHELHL
# UniProt P19784, whole entry, looked up: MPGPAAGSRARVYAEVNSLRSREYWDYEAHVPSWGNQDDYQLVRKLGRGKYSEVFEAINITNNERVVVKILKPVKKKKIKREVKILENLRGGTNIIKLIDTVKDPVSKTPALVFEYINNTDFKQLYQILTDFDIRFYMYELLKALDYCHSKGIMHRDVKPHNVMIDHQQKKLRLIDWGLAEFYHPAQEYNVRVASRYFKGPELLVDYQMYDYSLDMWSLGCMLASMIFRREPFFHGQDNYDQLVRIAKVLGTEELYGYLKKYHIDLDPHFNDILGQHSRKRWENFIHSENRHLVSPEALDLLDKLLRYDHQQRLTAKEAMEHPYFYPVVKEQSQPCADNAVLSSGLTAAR
# UniProt P50416: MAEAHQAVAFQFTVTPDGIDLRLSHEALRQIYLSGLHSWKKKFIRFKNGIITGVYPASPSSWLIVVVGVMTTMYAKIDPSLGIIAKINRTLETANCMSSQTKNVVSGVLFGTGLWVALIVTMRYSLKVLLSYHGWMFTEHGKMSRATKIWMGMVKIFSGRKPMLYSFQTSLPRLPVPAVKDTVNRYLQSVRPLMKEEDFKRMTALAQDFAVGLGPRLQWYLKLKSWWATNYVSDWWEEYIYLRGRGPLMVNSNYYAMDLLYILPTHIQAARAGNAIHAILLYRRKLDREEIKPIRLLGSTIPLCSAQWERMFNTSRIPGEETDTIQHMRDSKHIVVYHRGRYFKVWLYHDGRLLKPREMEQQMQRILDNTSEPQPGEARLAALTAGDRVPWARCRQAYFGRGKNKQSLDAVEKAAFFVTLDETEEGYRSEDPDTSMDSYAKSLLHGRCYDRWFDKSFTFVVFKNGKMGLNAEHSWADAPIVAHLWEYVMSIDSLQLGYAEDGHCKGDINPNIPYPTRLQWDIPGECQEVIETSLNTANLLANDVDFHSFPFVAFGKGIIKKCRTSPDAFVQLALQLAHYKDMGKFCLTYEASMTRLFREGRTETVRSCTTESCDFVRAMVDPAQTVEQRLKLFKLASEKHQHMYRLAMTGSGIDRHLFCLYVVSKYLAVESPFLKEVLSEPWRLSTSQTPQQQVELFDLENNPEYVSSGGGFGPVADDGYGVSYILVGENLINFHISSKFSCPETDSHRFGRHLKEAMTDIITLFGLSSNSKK
# UniProt Q8N668, whole entry, looked up: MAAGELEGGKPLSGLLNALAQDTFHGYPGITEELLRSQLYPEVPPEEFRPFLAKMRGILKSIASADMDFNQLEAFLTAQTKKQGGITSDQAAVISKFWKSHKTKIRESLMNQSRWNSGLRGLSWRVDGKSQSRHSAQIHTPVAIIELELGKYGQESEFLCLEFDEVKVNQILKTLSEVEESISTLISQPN
# The list shows a part of the results.
# Compound: CCn1cc(-c2ccnc3[nH]c(-c4cccc(CN(C)C)c4)cc23)c(-c2ccc(NC(=O)N(C)C)cc2)n1
# Experiment: log2 fold change, soluble protein after heating vs DMSO (PISA); higher = thermal stabilisation; K562 cells, 10 uM, 30 min; active = over 0.2 and 3.5 SD of the protein, either way, in both replicates (recomputed)
# Procedure, shortened: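 Thermal stability values are relative to control samples and come from duplicates. They are expressed as log2 fold changes. For measurement, K562 cells (2×10^6 cells/mL) received 10 μM compound for 30 min, and aliquots were heated for 3 min over 48°C-58°C, pooled, and extracted at 4°C in PBS with 0.5% NP-40. Soluble protein, the supernatant after 21,000xg for 90 min, was quantified by TMTpro 16plex LC-MS/MS with equalised channel sums.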
row,Target,log2 fold change
1,CPSF1 (UniProt Q10570),inactive: 0.026
2,COPS4 (UniProt Q9BT78),inactive: -0.022
3,COMMD2 (UniProt Q86X83),inactive: -0.005
4,COMP (UniProt P49747),inactive: 0.046
5,CPD (UniProt O75976),inactive: -0.044
6,CRCP (UniProt O75575),inactive: -0.005
7,COX5A (UniProt P20674),inactive: 0.072
8,COX5B (UniProt P10606),inactive: -0.043
9,CSNK2B (UniProt P67870),inactive: -0.051
10,CPT2 (UniProt P23786),inactive: 0.384
11,CSNK2A1 (UniProt P68400),inactive: -0.117
12,CRK (UniProt P46108),inactive: -0.039
13,COQ9 (UniProt O75208),inactive: 0.002
14,COX20 isoform 2 (UniProt Q5RI15),active: 0.294
15,CORO2A (UniProt Q92828),inactive: 0
16,COMMD4 (UniProt Q9H0A8),inactive: -0.129
17,COMMD6 isoform 2 (UniProt Q7Z4G1),inactive: -0.439
18,CSK (UniProt P41240),inactive: -0.075
19,COMT (UniProt P21964),inactive: -0.01
20,CRLF3 (UniProt Q8IUI8),inactive: -0.041
21,CSNK2A2 (UniProt P19784),inactive: -0.043
22,CPT1A (UniProt P50416),inactive: -0.064
23,COMMD1 (UniProt Q8N668),inactive: 0.157

# Quoted from the entries so far for reference:
row,Target,log2 fold change
16,COMMD4 (UniProt Q9H0A8),inactive: -0.129
17,COMMD6 isoform 2 (UniProt Q7Z4G1),inactive: -0.439
